US20120220603A1, “SUBSTITUTED HETEROCYCLIC DERIVATIVES FOR THE TREATMENT OF PAIN AND EPILEPSY” (ZALICUS PHARMACEUTICALS LTD., priority 2009, published 2012)
At least one compound was matched to its structure with a doubt left.

Protein sequences, listed by entry. Tags and fused reporters are not part of them. Lines headed by an entry give the natural chain unless they say otherwise; changes in a name come on top.
UniProt O95180: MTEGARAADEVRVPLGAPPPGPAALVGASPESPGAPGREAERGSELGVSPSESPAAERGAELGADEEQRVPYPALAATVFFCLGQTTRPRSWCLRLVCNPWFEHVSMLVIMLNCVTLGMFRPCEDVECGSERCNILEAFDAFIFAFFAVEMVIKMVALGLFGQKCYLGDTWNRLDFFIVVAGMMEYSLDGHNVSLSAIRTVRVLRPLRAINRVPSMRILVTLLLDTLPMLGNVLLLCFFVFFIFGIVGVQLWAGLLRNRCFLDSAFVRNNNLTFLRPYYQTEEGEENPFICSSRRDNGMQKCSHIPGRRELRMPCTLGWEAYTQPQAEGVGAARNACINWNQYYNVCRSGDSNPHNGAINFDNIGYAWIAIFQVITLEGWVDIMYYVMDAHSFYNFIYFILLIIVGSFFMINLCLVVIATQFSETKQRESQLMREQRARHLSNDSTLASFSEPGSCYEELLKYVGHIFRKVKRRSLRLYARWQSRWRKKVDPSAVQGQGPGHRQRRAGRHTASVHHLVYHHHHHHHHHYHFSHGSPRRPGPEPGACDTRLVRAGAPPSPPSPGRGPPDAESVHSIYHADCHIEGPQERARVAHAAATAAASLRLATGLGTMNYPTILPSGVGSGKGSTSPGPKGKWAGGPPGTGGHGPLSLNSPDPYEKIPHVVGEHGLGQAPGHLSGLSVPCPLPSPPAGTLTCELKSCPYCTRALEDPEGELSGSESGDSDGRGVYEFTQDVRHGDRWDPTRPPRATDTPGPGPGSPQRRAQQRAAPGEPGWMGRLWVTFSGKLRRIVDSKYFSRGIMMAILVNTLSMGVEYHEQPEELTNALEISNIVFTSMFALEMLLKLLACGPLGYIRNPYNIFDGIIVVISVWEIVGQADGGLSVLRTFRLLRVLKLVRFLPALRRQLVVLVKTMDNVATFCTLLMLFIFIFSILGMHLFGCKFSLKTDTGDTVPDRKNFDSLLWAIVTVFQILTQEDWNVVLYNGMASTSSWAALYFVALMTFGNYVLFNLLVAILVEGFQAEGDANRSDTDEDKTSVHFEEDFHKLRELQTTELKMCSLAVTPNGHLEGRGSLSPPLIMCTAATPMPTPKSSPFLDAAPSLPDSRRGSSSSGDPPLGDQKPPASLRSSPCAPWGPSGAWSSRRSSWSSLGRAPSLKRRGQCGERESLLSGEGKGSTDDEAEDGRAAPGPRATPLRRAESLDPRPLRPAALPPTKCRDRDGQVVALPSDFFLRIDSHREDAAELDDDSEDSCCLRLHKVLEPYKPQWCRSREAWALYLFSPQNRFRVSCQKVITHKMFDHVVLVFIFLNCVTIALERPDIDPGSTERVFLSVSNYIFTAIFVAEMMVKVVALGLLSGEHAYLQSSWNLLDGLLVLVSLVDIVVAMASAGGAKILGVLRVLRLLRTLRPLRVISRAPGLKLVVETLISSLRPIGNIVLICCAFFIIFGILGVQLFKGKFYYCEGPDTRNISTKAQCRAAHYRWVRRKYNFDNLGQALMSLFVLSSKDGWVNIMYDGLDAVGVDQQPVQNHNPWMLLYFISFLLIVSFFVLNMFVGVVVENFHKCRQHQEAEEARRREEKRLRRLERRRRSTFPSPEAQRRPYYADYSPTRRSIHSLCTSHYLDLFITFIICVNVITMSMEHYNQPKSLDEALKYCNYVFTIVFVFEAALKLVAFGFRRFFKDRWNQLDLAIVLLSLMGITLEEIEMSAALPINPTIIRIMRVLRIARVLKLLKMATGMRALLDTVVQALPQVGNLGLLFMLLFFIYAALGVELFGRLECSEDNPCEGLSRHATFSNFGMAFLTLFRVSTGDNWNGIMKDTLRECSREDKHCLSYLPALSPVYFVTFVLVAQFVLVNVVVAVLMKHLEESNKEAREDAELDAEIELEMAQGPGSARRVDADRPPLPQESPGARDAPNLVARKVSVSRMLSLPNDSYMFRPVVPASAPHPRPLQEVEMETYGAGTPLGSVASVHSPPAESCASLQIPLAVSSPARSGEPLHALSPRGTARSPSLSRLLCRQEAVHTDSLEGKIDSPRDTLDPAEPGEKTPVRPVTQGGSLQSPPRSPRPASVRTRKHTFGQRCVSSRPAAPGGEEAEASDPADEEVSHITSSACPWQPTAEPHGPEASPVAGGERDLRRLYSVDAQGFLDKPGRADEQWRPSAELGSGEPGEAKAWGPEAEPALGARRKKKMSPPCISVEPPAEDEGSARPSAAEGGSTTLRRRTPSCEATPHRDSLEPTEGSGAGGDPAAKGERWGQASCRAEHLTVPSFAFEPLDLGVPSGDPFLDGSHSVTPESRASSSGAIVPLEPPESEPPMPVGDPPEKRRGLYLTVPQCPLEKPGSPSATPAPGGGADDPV
UniProt Q15858, whole entry: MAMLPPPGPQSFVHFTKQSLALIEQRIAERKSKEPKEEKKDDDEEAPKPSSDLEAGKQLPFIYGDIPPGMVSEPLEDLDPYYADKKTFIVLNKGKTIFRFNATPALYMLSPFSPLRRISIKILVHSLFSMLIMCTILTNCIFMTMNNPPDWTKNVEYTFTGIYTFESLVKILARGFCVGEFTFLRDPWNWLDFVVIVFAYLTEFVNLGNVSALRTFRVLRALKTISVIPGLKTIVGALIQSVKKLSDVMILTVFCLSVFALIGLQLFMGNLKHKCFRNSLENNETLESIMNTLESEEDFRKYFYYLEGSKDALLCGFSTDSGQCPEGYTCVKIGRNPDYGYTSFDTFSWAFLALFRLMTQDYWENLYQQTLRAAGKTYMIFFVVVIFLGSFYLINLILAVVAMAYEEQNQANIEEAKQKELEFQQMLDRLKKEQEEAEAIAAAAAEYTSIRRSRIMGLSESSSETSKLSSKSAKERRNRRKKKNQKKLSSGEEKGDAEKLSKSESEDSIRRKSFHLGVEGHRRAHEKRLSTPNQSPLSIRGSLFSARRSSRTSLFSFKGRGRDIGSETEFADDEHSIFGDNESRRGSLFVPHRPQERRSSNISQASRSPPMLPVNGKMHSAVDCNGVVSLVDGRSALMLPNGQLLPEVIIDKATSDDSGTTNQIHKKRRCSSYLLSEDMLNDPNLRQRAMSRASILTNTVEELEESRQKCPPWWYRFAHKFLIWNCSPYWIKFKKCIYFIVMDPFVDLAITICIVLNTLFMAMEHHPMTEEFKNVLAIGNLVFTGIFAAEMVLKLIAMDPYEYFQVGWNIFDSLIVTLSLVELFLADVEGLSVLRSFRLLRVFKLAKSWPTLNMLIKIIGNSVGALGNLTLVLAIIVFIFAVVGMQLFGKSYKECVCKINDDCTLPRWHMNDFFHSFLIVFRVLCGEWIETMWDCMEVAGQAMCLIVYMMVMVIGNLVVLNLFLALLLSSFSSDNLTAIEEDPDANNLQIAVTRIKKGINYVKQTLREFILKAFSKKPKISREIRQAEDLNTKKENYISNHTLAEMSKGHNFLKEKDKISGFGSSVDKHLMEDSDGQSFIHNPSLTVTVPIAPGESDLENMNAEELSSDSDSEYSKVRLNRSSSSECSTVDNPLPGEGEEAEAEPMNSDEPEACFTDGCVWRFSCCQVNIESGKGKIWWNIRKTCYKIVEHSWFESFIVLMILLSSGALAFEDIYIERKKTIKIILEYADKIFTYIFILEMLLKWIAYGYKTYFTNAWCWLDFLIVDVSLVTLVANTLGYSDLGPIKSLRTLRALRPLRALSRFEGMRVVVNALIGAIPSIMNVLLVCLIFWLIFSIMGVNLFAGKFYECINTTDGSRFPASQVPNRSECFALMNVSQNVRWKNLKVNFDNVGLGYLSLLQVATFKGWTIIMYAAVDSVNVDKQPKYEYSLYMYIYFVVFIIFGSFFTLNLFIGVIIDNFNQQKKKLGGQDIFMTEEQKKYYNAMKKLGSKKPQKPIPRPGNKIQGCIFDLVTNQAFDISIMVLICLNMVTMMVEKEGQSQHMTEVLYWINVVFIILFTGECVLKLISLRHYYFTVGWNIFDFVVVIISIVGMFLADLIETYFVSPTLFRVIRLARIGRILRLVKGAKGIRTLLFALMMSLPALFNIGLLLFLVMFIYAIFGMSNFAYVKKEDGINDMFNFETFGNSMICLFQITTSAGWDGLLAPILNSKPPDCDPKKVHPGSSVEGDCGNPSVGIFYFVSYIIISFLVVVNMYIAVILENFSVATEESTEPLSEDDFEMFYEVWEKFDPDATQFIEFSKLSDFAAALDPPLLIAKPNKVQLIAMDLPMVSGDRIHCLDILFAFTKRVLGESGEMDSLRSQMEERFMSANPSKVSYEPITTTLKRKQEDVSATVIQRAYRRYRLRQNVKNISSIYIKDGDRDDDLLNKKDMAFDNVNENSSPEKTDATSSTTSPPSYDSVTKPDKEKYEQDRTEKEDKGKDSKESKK

Legend:
[1] = biological target: T1, CaV3.2 T-type Ca2+ channels expressed in HEK cells (Homo sapiens, UniProt O95180); test: CaV3.2 voltage-clamp electrophysiological assay (fast and slow inactivation); format: cell-based
T1 construct: expressed in transfected cells; host or cells: HEK cells
Description: Prior to recording currents from CaV3.2 T-type Ca^2+ channels expressed in HEK cells, the culture media was replaced with extracellular solution (ECS) containing (in mM): 142 CsCl, 10 D-glucose, 2 CaCl2, 1 MgCl2, 10 HEPES, pH adjusted to 7.4 with CsOH. Borosilicate glass patch pipettes, pulled on a P-97 micropipette puller (Sutter Instruments, Novato, Calif.) with typical resistances of 2-4 MW, were backfilled with intracellular solution containing (in mM): 126.5 Cs-methanesulphonate, 2 MgCl2, 10 HEPES, 11 EGTA, 2 Na-ATP, pH adjusted to 7.3 CsOH. […] were recorded in the whole-cell configuration at room temperature (˜21° C.) using an Axopatch 200B (Molecular Devices, Sunnyvale, Calif.) patch-clamp amplifier. Recordings were low-pass filtered at 1 kHz (−3 dB 4-pole Bessel filter), digitized at 2 kHz with a Digidata 1322A interface (Molecular Devices), and acquired using pClamp 9.2 (Molecular Devices). No leak subtraction was used. Test compounds, prepared as 30 mM stock solutions in DMSO and diluted in extracellular buffer, were applied through a gravity driven multi-barrelled array of capillaries (24 gauge) connected to reservoirs controlled by solenoid valves. The effects of compounds on CaV3.2 slow and fast inactivation were evaluated using four different voltage protocols. The voltage dependence of fast and slow channel inactivation was examined using a two pulse protocol. Data were analyzed and fitted using OriginPro v.7.5 (OriginLab, Northampton, Mass.) software.

[2] = biological target: T2, NaV1.7 channels expressed in HEK cells (Homo sapiens, UniProt Q15858); test: NaV1.7 voltage-clamp electrophysiological assay (enhancement of slow inactivation); format: cell-based; details: concentration tested 30 μM
T2 construct: expressed in transfected cells; host or cells: HEK cells
Procedure: To examine the effects of compounds on enhancement of slow inactivation of NaV1.7 and NaV1.8 channels expressed in HEK cells the culture media was replaced with an extracellular solution containing (in mM): 137 NaCl, 4 KCl, 1.8 CaCl2, 1 MgCl2, 10 HEPES, 10 glucose, pH adjusted to 7.4 with NaOH. The intracellular solution contained (in mM): 130 KCl, 1 MgCl2, 5 EGTA, 10 HEPES, 5 K2ATP, adjusted to pH 7.3 with KOH. Whole-cell recordings, preparation and application of test compounds were performed in a similar manner to the CaV3.2 electrophysiological assays. Voltage protocols were applied to quantify the effects of test compounds to enhance slow inactivation for NaV1.7 and NaV1.8.

[3] = system: Rat SNL tactile allodynia; test: L5/L6 spinal nerve ligation (SNL) Chung pain model, tactile allodynia (von Frey); format: in vivo; details: at 60 minutes compared to baseline and post-SNL
Description: The Spinal Nerve Ligation is an animal model representing peripheral nerve injury generating a neuropathic pain syndrome. In this model experimental animals develop the clinical symptoms of tactile allodynia and hyperalgesia. L5/L6 Spinal nerve ligation (SNL) injury was induced using the procedure of Kim and Chung (Kim et al., Pain 50:355-363 (1992)) in male Sprague-Dawley rats (Harlan; Indianapolis, Ind.) weighing 200 to 250 grams.
Anaesthesia was induced with 2% isofluorane in O2 at 2 L/min and maintained with 0.5% isofluorane in O2. Rats were then shaved and aseptically prepared for surgeries. A 2 cm paraspinal incision was made at the level of L4-S2. L4/L5 was exposed by removing the transverse process above the nerves with a small rongeur. […]
The assessment of tactile allodynia consisted of measuring the withdrawal threshold of the paw ipsilateral to the site of nerve injury in response to probing with a series of calibrated von Frey filaments (innocuous stimuli). […] The protocol was repeated until three changes in behaviour were determined (“up and down” method) (Chaplan et al., J. Neurosci. Methods 53:55-63 (1994)). The 50% paw withdrawal threshold was determined as (10^[Xf+kδ])/10,000, where Xf=the value of the last von Frey filament employed, k=Dixon value for the positive/negative pattern, and S=the logarithmic difference between stimuli. […]

[4] = voltage-dependence of half inactivation, HEK cells, whole-cell

## O=C(CN1CCNCC1=O)Nc1cc(C(F)(F)F)cc(C(F)(F)F)c1 [Compound 1, N-(3,5-bis(trifluoromethyl)phenyl)-2-(2-oxopiperazin-1-yl)acetamide]
[1]; 5.1 s interval
  Fraction of current recovered at 5.1 s interval: 0.87
[1]; at −40 mV
  Fraction current remaining at −40 mV: 0.51
[1]; [4]
  V1/2 fast inactivation: −66 mV
  V1/2 slow inactivation: *−80 mV
[2]
  Fraction current remaining: 0.40
[3]
  Anti-allodynia in rat SNL tactile allodynia (in words): significant anti-allodynia
